Results are given in words; binding and its absence hold for the method and conditions named.
Biological target: NOMO^LD-FLAG (NOMO1 luminal domain, residues 1 to 1160, C-terminal FLAG tag) (human) (UniProt Q15155)
Experiment: SEC-MALS; NOMO^LD-FLAG on a Superose 6 column, RT, 50 mM MES pH 6.0, 150 mM KCl, 5 mM MgCl2, 5 mM CaCl2, 2% glycerol, 0.005% DDM; protein conjugate analysis; both purified

Chains of the proteins cited; added tags and fusions are not shown. Residues count along the entry.
UniProt Q15155, residues 32-1160: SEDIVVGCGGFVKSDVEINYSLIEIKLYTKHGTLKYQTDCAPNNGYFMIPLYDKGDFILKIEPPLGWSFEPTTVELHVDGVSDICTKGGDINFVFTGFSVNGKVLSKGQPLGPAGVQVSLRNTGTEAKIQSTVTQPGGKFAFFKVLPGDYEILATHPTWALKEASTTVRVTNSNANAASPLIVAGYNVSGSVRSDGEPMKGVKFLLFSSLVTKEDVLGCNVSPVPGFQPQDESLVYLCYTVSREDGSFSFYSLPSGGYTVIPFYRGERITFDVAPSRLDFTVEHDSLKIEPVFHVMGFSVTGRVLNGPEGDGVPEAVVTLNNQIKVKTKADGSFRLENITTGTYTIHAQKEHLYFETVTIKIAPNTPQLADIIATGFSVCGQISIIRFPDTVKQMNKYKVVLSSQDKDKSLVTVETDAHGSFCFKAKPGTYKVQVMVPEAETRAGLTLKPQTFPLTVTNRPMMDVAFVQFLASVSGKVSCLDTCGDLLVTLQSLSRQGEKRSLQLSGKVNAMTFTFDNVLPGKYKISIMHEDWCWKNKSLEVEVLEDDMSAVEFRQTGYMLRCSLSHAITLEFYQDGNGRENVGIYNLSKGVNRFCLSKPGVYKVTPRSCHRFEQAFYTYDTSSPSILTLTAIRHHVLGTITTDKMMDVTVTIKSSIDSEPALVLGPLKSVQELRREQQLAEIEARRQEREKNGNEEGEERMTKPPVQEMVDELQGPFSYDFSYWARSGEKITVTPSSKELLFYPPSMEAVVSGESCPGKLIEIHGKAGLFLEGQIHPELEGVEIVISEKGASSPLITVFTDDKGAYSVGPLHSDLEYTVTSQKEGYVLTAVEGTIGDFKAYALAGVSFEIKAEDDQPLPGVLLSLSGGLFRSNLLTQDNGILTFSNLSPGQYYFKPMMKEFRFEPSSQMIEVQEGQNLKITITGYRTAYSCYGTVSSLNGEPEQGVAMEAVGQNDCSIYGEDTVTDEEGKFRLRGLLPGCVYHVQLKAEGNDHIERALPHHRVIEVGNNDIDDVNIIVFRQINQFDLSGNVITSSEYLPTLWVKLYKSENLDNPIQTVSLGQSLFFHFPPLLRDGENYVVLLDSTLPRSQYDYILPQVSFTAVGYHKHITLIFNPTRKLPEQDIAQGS

- binding: no binding
Substance: NOMO^LD-FLAG (NOMO1 luminal domain, residues 1 to 1160, C-terminal FLAG tag) (from UniProt Q15155 32-1160) (domain or fragment)

Reference: article PMC8327139, “Nodal modulator (NOMO) is required to sustain endoplasmic reticulum morphology” (The Journal of Biological Chemistry, 2021)
